{"source": "the supplement of paper PMC3334620", "note": "Over roughly 33,000 sequences, “E-score (-0.5 to 0.5)” has its median near -8e-05; the highest 2% begin near 0.23. Some of the results follow.", "data": [{"target": "T1, Nrg2 (UniProt P38082)", "T1 sequence": "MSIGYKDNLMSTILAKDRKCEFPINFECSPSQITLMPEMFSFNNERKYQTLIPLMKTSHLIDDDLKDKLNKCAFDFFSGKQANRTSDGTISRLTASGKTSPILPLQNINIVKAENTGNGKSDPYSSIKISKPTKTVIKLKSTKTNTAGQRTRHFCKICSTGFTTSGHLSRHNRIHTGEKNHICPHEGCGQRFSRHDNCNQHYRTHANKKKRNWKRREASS", "assay": "PBM E-score (8-mer binding enrichment) (E-score (-0.5 to 0.5)); higher = stronger / more preferred TF binding", "conditions": "protein concentration: 100 nM; construct: GST-full length", "in_short": "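Using PURExpress in vitro transcription/translation, GST-tagged yeast transcription factors were made in full-length or DNA-binding-domain form. These were applied at about 100-200 nM to double-stranded universal all-10-mer Agilent arrays, and bound protein was detected with fluorescent anti-GST. Scans were normalised with masliner before the Universal PBM Analysis Suite assigned E-scores to ungapped eight-base words pooled with their reverse complements.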", "values": [{"sequence": "CGAGGATC", "PBM E-score": 0.0125}, {"sequence": "AAGGGCTA", "PBM E-score": -0.119}, {"sequence": "CCTGGGAG", "PBM E-score": -0.0975}, {"sequence": "GGGTGACC", "PBM E-score": -0.0516}, {"sequence": "AACTATAC", "PBM E-score": -0.0662}, {"sequence": "AACGTTAC", "PBM E-score": -0.0437}, {"sequence": "GAAGATCA", "PBM E-score": -0.073}, {"sequence": "GCGATGCA", "PBM E-score": -0.185}, {"sequence": "ACCAAACC", "PBM E-score": 0.143}, {"sequence": "GTCGCGAA", "PBM E-score": 0.125}, {"sequence": "ACCGACAT", "PBM E-score": 0.123}, {"sequence": "CGAACAGA", "PBM E-score": -0.00674}, {"sequence": "AAGATCAC", "PBM E-score": 0.0656}, {"sequence": "GCCAGGTA", "PBM E-score": -0.0513}, {"sequence": "CCAGGCTC", "PBM E-score": -0.0756}, {"sequence": "TATCCGAA", "PBM E-score": -0.0137}, {"sequence": "GAGAGCCA", "PBM E-score": -0.0221}, {"sequence": "CCGGGTTC", "PBM E-score": 0.139}, {"sequence": "GCTTACGA", "PBM E-score": -0.197}, {"sequence": "ATTCTAAC", "PBM E-score": -0.0365}, {"sequence": "GTAATAGA", "PBM E-score": 0.0231}, {"sequence": "CGTCTCAA", "PBM E-score": 0.0469}, {"sequence": "AAAGAAAA", "PBM E-score": 0.112}, {"sequence": "CCCCTTAC", "PBM E-score": 0.0255}, {"sequence": "AGTATACG", "PBM E-score": 0.0367}, {"sequence": "AATTTACA", "PBM E-score": -0.0448}, {"sequence": "ATAACATC", "PBM E-score": 0.104}, {"sequence": "CAATAGCA", "PBM E-score": -0.102}, {"sequence": "ACTACGCC", "PBM E-score": -0.0991}, {"sequence": "ATGGTATA", "PBM E-score": 0.0282}, {"sequence": "GGAAAGAA", "PBM E-score": 0.0994}, {"sequence": "ACTGGGTC", "PBM E-score": -0.168}, {"sequence": "TGGCGCCA", "PBM E-score": 0.123}, {"sequence": "CCTGGGAC", "PBM E-score": -0.165}, {"sequence": "CGGGGTCA", "PBM E-score": -0.0228}, {"sequence": "TGCGCCAA", "PBM E-score": 0.0379}, {"sequence": "AACCTCTG", "PBM E-score": -0.127}, {"sequence": "AACAAGTA", "PBM E-score": -0.0255}, {"sequence": "CCCTCCCA", "PBM E-score": 0.127}, {"sequence": "CTTTCTTA", "PBM E-score": 0.0208}, {"sequence": "AAGATCCA", "PBM E-score": 0.0354}, {"sequence": "GTTCAATA", "PBM E-score": -0.00563}, {"sequence": "CTTCCGGA", "PBM E-score": -0.204}, {"sequence": "GCGTAATA", "PBM E-score": 0.0559}, {"sequence": "GACTCGGC", "PBM E-score": -0.235}, {"sequence": "AGTACGCG", "PBM E-score": 0.191}, {"sequence": "GAATAGTC", "PBM E-score": 0.0561}, {"sequence": "TATCCCCA", "PBM E-score": 0.186}, {"sequence": "ATAGCTCC", "PBM E-score": -0.175}, {"sequence": "CAAAAGTC", "PBM E-score": -0.106}, {"sequence": "CACTCCAA", "PBM E-score": -0.0828}, {"sequence": "ATGGGAAA", "PBM E-score": -0.133}, {"sequence": "GTGTCTTA", "PBM E-score": -0.0401}, {"sequence": "ACCATAGT", "PBM E-score": -0.116}, {"sequence": "GCTATACA", "PBM E-score": -0.0994}, {"sequence": "CGCCATCC", "PBM E-score": -0.135}, {"sequence": "GTAAACAA", "PBM E-score": 0.121}, {"sequence": "ATGTTGAA", "PBM E-score": 0.153}, {"sequence": "AGTTTCAA", "PBM E-score": 0.013}, {"sequence": "CTCAATGC", "PBM E-score": -0.129}, {"sequence": "AACGATGC", "PBM E-score": -0.193}, {"sequence": "AAACGAGT", "PBM E-score": 0.172}, {"sequence": "AGCTCCTC", "PBM E-score": -0.254}, {"sequence": "CCGTGCCC", "PBM E-score": -0.247}, {"sequence": "CATGAGGA", "PBM E-score": 0.00092}, {"sequence": "CCCCACGA", "PBM E-score": 0.0753}, {"sequence": "GACATTAA", "PBM E-score": 0.0858}, {"sequence": "TCCACGAA", "PBM E-score": 0.151}, {"sequence": "TACAGCTA", "PBM E-score": -0.103}, {"sequence": "CGACTTGC", "PBM E-score": -0.038}, {"sequence": "ACGCAAAT", "PBM E-score": 0.0425}, {"sequence": "GTGAGGAA", "PBM E-score": -0.0482}, {"sequence": "ACAATGAT", "PBM E-score": 0.0575}, {"sequence": "CGTGAAAC", "PBM E-score": -0.0624}, {"sequence": "TCGGGCAA", "PBM E-score": 0.115}, {"sequence": "GTTGCGAA", "PBM E-score": 0.0679}, {"sequence": "GTCGGTAA", "PBM E-score": -0.0786}, {"sequence": "AGACAGCG", "PBM E-score": -0.0227}, {"sequence": "CGCACGGC", "PBM E-score": 0.0495}, {"sequence": "ATATAAAC", "PBM E-score": 0.255}, {"sequence": "GGGTTTAA", "PBM E-score": 0.0664}, {"sequence": "AGTCGGCC", "PBM E-score": -0.086}, {"sequence": "CTTACCAC", "PBM E-score": -0.0769}, {"sequence": "AATAACCA", "PBM E-score": 0.147}, {"sequence": "AATACAAC", "PBM E-score": 0.185}, {"sequence": "GAGGAATC", "PBM E-score": -0.133}, {"sequence": "ATGATTAC", "PBM E-score": 0.0117}, {"sequence": "AAATAAAA", "PBM E-score": 0.0565}, {"sequence": "AGCCAGTA", "PBM E-score": 0.0109}, {"sequence": "ACATTCAG", "PBM E-score": -0.104}, {"sequence": "TAGATATA", "PBM E-score": 0.153}, {"sequence": "CTTATCAC", "PBM E-score": -0.0199}, {"sequence": "GGATGCGA", "PBM E-score": -0.0571}, {"sequence": "ATTCCATC", "PBM E-score": 0.164}, {"sequence": "ACCCTATA", "PBM E-score": 0.114}, {"sequence": "AGGAAACT", "PBM E-score": 0.0285}, {"sequence": "AAAGATAA", "PBM E-score": 0.112}, {"sequence": "CGGGCGGA", "PBM E-score": 0.0877}, {"sequence": "GGCCTTAC", "PBM E-score": -0.132}, {"sequence": "CAGGACCG", "PBM E-score": -0.152}, {"sequence": "CGGGCTCC", "PBM E-score": -0.312}, {"sequence": "AAATGATC", "PBM E-score": -0.05}, {"sequence": "CTACAGGA", "PBM E-score": -0.0925}, {"sequence": "ATGCTTCG", "PBM E-score": -0.00542}, {"sequence": "CGTGTGTC", "PBM E-score": -0.125}, {"sequence": "ACGTTTAG", "PBM E-score": -0.0776}, {"sequence": "GCCAATTA", "PBM E-score": 0.0951}, {"sequence": "ACAGGATC", "PBM E-score": -0.0733}, {"sequence": "CTCACGTC", "PBM E-score": -0.0243}]}]}
